Data reported in PMC2734569, “Functional mapping of the fission yeast DNA polymerase δ B-subunit Cdc1 by site-directed and random pentapeptide insertion mutagenesis” (BMC Molecular Biology, 2009).
Positions count from the first letter of the chain named. No constants are given. Whether binding was seen depends on the method and setting. Sequences can lack the tags named with a protein.

Experiments:
Test in all cases: two-hybrid; LexA-Cdc1 bait (pBTM116 or pBTM116BN) with Gal4-Pol3 prey and co-expressed c-myc-tagged Cdc27 (pAA-Cdc27) in S. cerevisiae CTY10-5d; ONPG liquid culture beta-galactosidase assay, mean of triplicates, as percent of wild-type Cdc1
Cdc1-J12 = target: T1, Cdc1-J12 (Schizosaccharomyces pombe, UniProt P87324 1-462, Ser-GlyValProHisSer-Ile)
T1 construct: Cdc1, S. pombe, with a pentapeptide inserted after residue 7; source: yeast two-hybrid fusion, in S. cerevisiae CTY10-5d
T1 sequence (looked up): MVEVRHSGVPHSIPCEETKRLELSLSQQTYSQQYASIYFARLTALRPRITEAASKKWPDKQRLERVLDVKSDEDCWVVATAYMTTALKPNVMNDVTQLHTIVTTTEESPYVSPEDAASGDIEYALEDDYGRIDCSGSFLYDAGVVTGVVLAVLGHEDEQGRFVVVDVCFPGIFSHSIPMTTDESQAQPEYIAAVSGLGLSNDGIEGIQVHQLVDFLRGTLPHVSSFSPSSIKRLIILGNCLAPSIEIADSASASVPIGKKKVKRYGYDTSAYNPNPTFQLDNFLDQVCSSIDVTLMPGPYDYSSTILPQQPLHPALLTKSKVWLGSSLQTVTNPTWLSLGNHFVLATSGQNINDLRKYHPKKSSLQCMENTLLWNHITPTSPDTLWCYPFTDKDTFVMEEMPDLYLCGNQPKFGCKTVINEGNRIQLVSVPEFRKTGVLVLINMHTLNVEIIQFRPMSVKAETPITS

Cdc1-A10 = target: T2, Cdc1-A10 (Schizosaccharomyces pombe, UniProt P87324 1-462, Asn328Ala | Pro329Ala)
T2 construct: Cdc1, S. pombe, double point mutant (A5 and A6 combined); source: yeast two-hybrid fusion, in S. cerevisiae CTY10-5d
T2 sequence (looked up): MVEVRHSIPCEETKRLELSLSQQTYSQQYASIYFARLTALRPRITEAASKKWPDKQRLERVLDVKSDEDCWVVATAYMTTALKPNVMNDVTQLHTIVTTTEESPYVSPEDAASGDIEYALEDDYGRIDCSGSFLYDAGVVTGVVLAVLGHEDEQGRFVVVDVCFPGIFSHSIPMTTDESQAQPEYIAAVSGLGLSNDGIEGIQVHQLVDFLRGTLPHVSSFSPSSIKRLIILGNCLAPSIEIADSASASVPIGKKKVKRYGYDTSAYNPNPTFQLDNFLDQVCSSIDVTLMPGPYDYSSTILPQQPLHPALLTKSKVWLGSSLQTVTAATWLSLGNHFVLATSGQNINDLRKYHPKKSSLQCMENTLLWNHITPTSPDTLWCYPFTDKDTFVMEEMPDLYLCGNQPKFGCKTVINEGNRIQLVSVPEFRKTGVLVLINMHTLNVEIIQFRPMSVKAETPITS

Cdc1-A6 = target: T3, Cdc1-A6 (Schizosaccharomyces pombe, UniProt P87324 1-462, Pro329Ala)
T3 construct: Cdc1, S. pombe, point mutant; source: yeast two-hybrid fusion, in S. cerevisiae CTY10-5d
T3 sequence (looked up): T2 sequence (looked up) with A328N

Cdc1-J8 = target: T4, Cdc1-J8 (Schizosaccharomyces pombe, UniProt P87324 1-462, Lys-GlyValProLeuLys-Pro)
T4 construct: Cdc1, S. pombe, with a pentapeptide inserted after residue 83; also called J19; source: yeast two-hybrid fusion, in S. cerevisiae CTY10-5d
T4 sequence (looked up): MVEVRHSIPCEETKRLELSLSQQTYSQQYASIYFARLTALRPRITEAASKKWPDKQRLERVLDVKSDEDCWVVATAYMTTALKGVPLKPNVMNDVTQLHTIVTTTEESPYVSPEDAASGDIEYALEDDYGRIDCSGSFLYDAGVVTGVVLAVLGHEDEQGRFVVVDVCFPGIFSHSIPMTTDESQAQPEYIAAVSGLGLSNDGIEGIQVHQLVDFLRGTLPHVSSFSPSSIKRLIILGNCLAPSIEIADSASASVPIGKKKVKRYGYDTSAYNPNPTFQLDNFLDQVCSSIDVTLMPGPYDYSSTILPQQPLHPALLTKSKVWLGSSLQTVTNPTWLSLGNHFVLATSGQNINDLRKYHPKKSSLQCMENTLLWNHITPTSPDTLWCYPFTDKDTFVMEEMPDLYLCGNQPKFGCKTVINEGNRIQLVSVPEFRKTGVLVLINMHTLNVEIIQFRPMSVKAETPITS

binding (Cdc1-A6): no binding (tested: <1% of wild type)
B1: Pol3 (fission yeast DNA polymerase delta catalytic subunit) (natural protein, Schizosaccharomyces pombe, UniProt P30316 1-1086, looked up)
chain: MTDRSSNEGVVLNKENYPFPRRNGSIHGEITDVKRRRLSERNGYGDKKGSSSKEKTSSFEDELAEYASQLDQDEIKSSKDQQWQRPALPAINPEKDDIYFQQIDSEEFTEGSVPSIRLFGVTDNGNSILVHVVGFLPYFYVKAPVGFRPEMLERFTQDLDATCNGGVIDHCIIEMKENLYGFQGNEKSPFIKIFTTNPRILSRARNVFERGEFNFEELFPVGVGVTTFESNTQYLLRFMIDCDVVGMNWIHLPASKYQFRYQNRVSNCQIEAWINYKDLISLPAEGQWSKMAPLRIMSFDIECAGRKGVFPDPSIDPVIQIASIVTQYGDSTPFVRNVFCVDTCSQIVGTQVYEFQNQAEMLSSWSKFVRDVDPDVLIGYNICNFDIPYLLDRAKSLRIHNFPLLGRIHNFFSVAKETTFSSKAYGTRESKTTSIPGRLQLDMLQVMQRDFKLRSYSLNAVCSQFLGEQKEDVHYSIITDLQNGTADSRRRLAIYCLKDAYLPQRLMDKLMCFVNYTEMARVTGVPFNFLLARGQQIKVISQLFRKALQHDLVVPNIRVNGTDEQYEGATVIEPIKGYYDTPIATLDFSSLYPSIMQAHNLCYTTLLDSNTAELLKLKQDVDYSVTPNGDYFVKPHVRKGLLPIILADLLNARKKAKADLKKETDPFKKAVLDGRQLALKVSANSVYGFTGATNGRLPCLAISSSVTSYGRQMIEKTKDVVEKRYRIENGYSHDAVVIYGDTDSVMVKFGVKTLPEAMKLGEEAANYVSDQFPNPIKLEFEKVYFPYLLISKKRYAGLFWTRTDTYDKMDSKGIETVRRDNCPLVSYVIDTALRKMLIDQDVEGAQLFTKKVISDLLQNKIDMSQLVITKALSKTDYAAKMAHVELAERMRKRDAGSAPAIGDRVAYVIIKGAQGDQFYMRSEDPIYVLENNIPIDAKYYLENQLSKPLLRIFEPILGEKASSLLHGDHTRTISMAAPSVGGIMKFAVKVETCLGCKAPIKKGKTALCENCLNRSAELYQRQVAQVNDLEVRFARLWTQCQRCQGSMHQDVICTSRDCPIFYMRIAEHKKLQQSVDLLKRFDEMSW
notes: DNA polymerase delta catalytic subunit Pol3, S. pombe; prey plasmid named pACT-Pol3 in the results and pGAD2F-Pol3 in the methods; also called Gal4-Pol3; pACT-Pol3; source: yeast two-hybrid fusion, in S. cerevisiae CTY10-5d
binding (Cdc1-J12): no binding (tested: <1% of wild type (Table 1))
binding (Cdc1-A10): no binding (tested: <1% of wild type (Table 1))
binding (Cdc1-J8): no binding (tested: <1% of wild type (Table 1))
